# Results from PubChem BioAssay AID1347421 (Sanford-Burnham Center for Chemical Genomics, 2020).
# Amino acid sequences for entries named in this document (tags omitted). A change or cut given only in a name is not applied to a line headed by its entry.
# UniProt O00391: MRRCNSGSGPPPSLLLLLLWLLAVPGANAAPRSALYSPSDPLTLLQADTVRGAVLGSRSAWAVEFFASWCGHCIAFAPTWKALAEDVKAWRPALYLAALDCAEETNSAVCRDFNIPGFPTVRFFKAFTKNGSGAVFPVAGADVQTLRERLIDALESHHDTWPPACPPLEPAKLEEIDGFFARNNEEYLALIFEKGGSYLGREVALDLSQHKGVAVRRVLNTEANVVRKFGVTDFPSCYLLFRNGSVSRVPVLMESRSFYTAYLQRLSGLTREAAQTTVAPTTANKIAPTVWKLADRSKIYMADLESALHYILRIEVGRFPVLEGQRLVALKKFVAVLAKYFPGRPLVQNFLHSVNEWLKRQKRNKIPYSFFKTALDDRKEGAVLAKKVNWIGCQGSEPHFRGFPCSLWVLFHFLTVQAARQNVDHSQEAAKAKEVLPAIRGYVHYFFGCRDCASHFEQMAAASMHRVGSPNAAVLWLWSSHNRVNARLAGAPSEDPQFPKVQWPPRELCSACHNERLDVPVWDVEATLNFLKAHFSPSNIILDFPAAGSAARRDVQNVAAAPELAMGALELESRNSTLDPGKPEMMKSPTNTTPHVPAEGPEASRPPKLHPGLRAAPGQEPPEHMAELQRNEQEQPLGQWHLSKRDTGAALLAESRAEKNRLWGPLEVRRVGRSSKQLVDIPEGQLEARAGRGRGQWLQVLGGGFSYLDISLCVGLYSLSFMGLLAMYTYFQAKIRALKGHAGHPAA
# Over roughly 1,500 compounds, “activity” has its median near 2; the lowest 2% begin near -18. The list shows a part of the results. Active and inactive are the calls of the source.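 The calls were made as follows: active = inhibition of at least 40% at 10 µM; inconclusive = no clear call, values can overlap the other calls; inactive = the rest.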
# Biological target: Sulfhydryl oxidase 1 (Homo sapiens) (UniProt O00391)
# Experiment: human QSOX1 sulfhydryl oxidase inhibition – biochemical, ROS-Glo luminescence, single concentration, confirmation (AID 1347421);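 also: 0% = DMSO wells with enzyme and 100% = wells lacking QSOX1 enzyme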
# Settings: recombinant hQSOX1, RNase A substrate, ROS-Glo H2O2 luminescence; at 10 µM
row,SMILES,activity
1,O=C(CS(=O)(=O)c1ccccc1)Nc1nncs1,1.4%
2,COc1ccc(C(=O)Nc2c(Cl)ccc3nsnc23)cc1OC,1.5%
3,Cc1cccc(CNC2CC(=O)N(CCc3ccccc3)C2)n1 (centres undefined),3.2%
4,COc1ccc(-c2ccccc2NC(=O)C2CCCN2C2CCN(C)CC2)cc1 (centres undefined),inactive: -1.7%
5,COc1ccc(CC2CN(c3ccccn3)CCO2)cc1 (centres undefined),inactive: -0.7%
6,O=C1CC(NCc2ncc[nH]2)CN1CCc1cccc(Cl)c1 (centres undefined),inactive: -16.4%
7,CC(=O)n1c2ccccc2n2c(C)ncc12,inactive: -6.7%
8,COc1cccc(C(=O)N2CCOC(CCCC(C)C)C2)c1OC (centres undefined),5.5%
9,O[C@@H]1CN(Cc2ccccc2OC2CCCC2)CC[C@H]1N1CCOCC1,2.2%
10,Cc1nc(C)c(CN2C[C@H]3OC(=O)N(CCCc4ccc(F)cc4)[C@H]3C2)nc1C,8.2%
11,CCCCNC(=O)N1CCN(Cc2ccccc2Cl)CC1,inactive: -7%
12,COc1cccc(CN2CCNC(=O)C2CC(=O)NCCc2cn3ccccc3n2)c1OC (centres undefined),1.8%
13,CN(C)S(=O)(=O)N1CCc2ccc(NC(=O)C3CCCO3)cc2C1 (centres undefined),2.5%
14,Cc1n[nH]c(C)c1NC(=O)c1cc2ccccc2oc1=O,inactive: -15.4%
15,COc1ccc(F)c(CN2CCCC3(CCN(CCCn4cccn4)C3)C2)c1 (centres undefined),4.7%
16,CCN1CCN(CC(O)COc2cccc(CNCC3CCN(C)CC3)c2)CC1 (centres undefined),0.4%
17,CCOC(=O)c1nc(-c2ccc(F)cc2)no1,inactive: -21.6%
18,O=C(CCn1cncn1)N1CCOC(CCc2ccccc2)C1 (centres undefined),inactive: -3.7%
19,CSc1nccc(N2C[C@H]3OC(=O)N(CCN4CCCCC4)[C@H]3C2)n1,9%
20,COc1ccccc1OCC(=O)NCC1CCCN(C(=O)CSc2nc(C)cs2)C1 (centres undefined),6.2%
21,CN(CC1(O)CCCN(CC(C)(C)C)C1=O)C1CCOCC1 (centres undefined),4.9%
22,c1cncc(-c2nn3cnnc3s2)c1,inactive: -3.2%

# 6 entries from above, with bars between the fields.
row | SMILES | activity
2 | COc1ccc(C(=O)Nc2c(Cl)ccc3nsnc23)cc1OC | 1.5%
3 | Cc1cccc(CNC2CC(=O)N(CCc3ccccc3)C2)n1 (centres undefined) | 3.2%
4 | COc1ccc(-c2ccccc2NC(=O)C2CCCN2C2CCN(C)CC2)cc1 (centres undefined) | inactive: -1.7%
5 | COc1ccc(CC2CN(c3ccccn3)CCO2)cc1 (centres undefined) | inactive: -0.7%
6 | O=C1CC(NCc2ncc[nH]2)CN1CCc1cccc(Cl)c1 (centres undefined) | inactive: -16.4%
7 | CC(=O)n1c2ccccc2n2c(C)ncc12 | inactive: -6.7%

# The results go on.

row,SMILES,activity
1,O=C1CCCN1c1cccc(NCC2(c3ccc(F)cc3)CCOC2)c1 (centres undefined),3.1%
2,ClC1=C(OCCNCC2CCCO2)[C+]=Cc2ccccc21 (centres undefined),0.2%
3,O=C(COc1ccccc1)Nc1ccc(N2CCN(C(=O)c3ccco3)CC2)cc1,inactive: -18%
4,Cn1cc([C@@H]2C[C@H]3CN(Cc4cccc(Cl)c4)C(=O)[C@]34CCCN24)cn1,inactive: 0%
5,CCN(Cc1cnn(C)c1)Cc1cccc(OC)c1OCC(O)CN1CCOCC1 (centres undefined),inactive: -4%
6,Cc1c(CNCC2(O)CCCN(Cc3ccc(F)c(F)c3)C2=O)cnn1C (centres undefined),inactive: -3.9%
7,O=C(Cn1cncn1)N1CCOC(Cc2cccc(C(F)(F)F)c2)C1 (centres undefined),inactive: -4.8%
8,COCC(=O)N1CCCC1c1ccc(C(=O)NCc2ccccc2Cl)s1 (centres undefined),inactive: -5.5%
9,COc1ccccc1C(=O)Nc1ccnn1C1CCN(CC2CCOC2)CC1 (centres undefined),0.9%
10,O=C(c1ccncc1)N(CC1CCN(C2Cc3ccccc3C2)CC1)CC1CCCO1 (centres undefined),1.5%
11,CC(C)(C)NC(=O)NC(=O)c1ccccc1,2.4%
12,COc1ccccc1/C=C/CN1CCNC(=O)C1CC(=O)NCCCn1cccn1 (centres undefined),2.9%
13,COCCNC(=O)CCC1CCN(C(=O)CCCCc2ccccc2)CC1,6.8%
14,CC(C)N1CC(C(=O)NC2CCCC2)CC1=O (centres undefined),6.2%
15,O=C(CCC1CCCN(CC2CC2)C1)N1CCN(Cc2ccccc2)CC1 (centres undefined),0.3%
16,CN(CC1CCCCO1)C(=O)c1cc(COc2cccc(F)c2)[nH]n1 (centres undefined),inactive: 0%
17,O=C(NCCCn1cccn1)c1cn(Cc2ccc(Cl)cc2)nn1,inactive: -4.9%
18,O=C(CN1CCCCC1)NC1CC(=O)N(Cc2ccccc2Cl)C1 (centres undefined),3.8%
19,CN(C(=O)c1ccc2c(c1)OCCO2)C1CCCN(C2Cc3ccccc3C2)C1 (centres undefined),4%
20,Cc1nc(CNC(=O)c2ccc3oc(C(C)C)nc3c2)cs1,8%
21,COC(=O)c1cc(C(=O)OC)n(Cc2ccc(F)cc2)n1,inactive: -4.7%
22,Fc1ccc(CC2CN(C3CCOCC3)CCO2)cc1 (centres undefined),0.2%

row,SMILES,activity
1,Cc1cccc(N2CCN(CC(=O)Nc3ccc(S(N)(=O)=O)cc3)CC2)c1C,inactive: -11.2%
2,CCN(CC)C(=O)CCc1nnc(-c2ccccc2)o1,inactive: -5.5%
3,CCCS(=O)(=O)N1CCC(CCOc2ccccc2)(C(=O)OCC)CC1,3.3%
4,Cc1nc2nc(CSc3nc4ccccc4s3)cc(=O)n2[nH]1,inactive: -0.7%
5,COc1cc(CNCC2CCCCC2)ccc1OCC(O)CN1CCC(O)CC1 (centres undefined),9.1%
6,COc1cc(CN2CCc3[nH]nc(-c4ccccc4)c3C2)cc2c1OCO2,11.8%
7,COc1cccc(C(=O)N2CCN(Cc3cn[nH]c3-c3ccc(F)cc3F)CC2)c1,1.9%
8,CCN1CCN(CC(O)COc2cccc(CNCCCn3cccn3)c2)CC1 (centres undefined),0.3%
9,Cc1occc1C(=O)NC1CC(=O)N(Cc2cccc3ccccc23)C1 (centres undefined),1.4%
10,COC(=O)C1CCN(C(=O)c2cn(Cc3ccc(F)cc3Cl)nn2)CC1,4.3%
11,COc1ccc(C(N)=O)cc1S(=O)(=O)NC(C)C,inactive: -19.1%
12,Cc1occc1C(=O)Nc1nc2c(s1)CCCCC2,active: 79.9%
13,Cc1nn(-c2ccccc2)c(C)c1CC(=O)NC1CCCN(C2CCN(C)CC2)C1 (centres undefined),inactive: -0.8%
14,c1ccc2oc(-c3cnnc(N4CCC(N5CCSCC5)CC4)n3)cc2c1,13.5%
15,Cc1cc(=O)n2[nH]c(SCc3ccccc3)nc2n1,4.3%
16,COc1cccc(CC2CN(C(=O)CSC)CCO2)c1 (centres undefined),1.5%
17,COc1cc(CNCC2(O)CCCCC2)ccc1OCC(O)CN(C)C(C)C (centres undefined),2.5%
18,O=C(NCC1CCCN(Cc2nc3ccccc3s2)C1)c1ccc2c(c1)OCO2 (centres undefined),4.1%
19,COc1ccc(CNCCc2cnc[nH]2)c(OCC(O)CN2CCCC2)c1 (centres undefined),7%
20,CCOC(=O)C1CCCN(Cc2cn(C)nc2-c2ccccc2F)C1 (centres undefined),6.6%
21,CCN(CCn1cccn1)Cc1cccc(OCC(O)CN2CCOCC2)c1 (centres undefined),6.3%
22,COc1cc(CN(C)C)ccc1OCC(O)CN(C)C(C)C (centres undefined),6.9%

row,SMILES,activity
1,Nc1ncnc(N(c2ccccc2)c2ccccc2)n1,inactive: -1.7%
2,O=C(CN1CCCCCC1)Nc1ccc(Cl)cc1,inactive: -10%
3,CCn1c(C2CCCO2)nc2ccccc21 (centres undefined),inactive: -18.1%
4,COc1ccc(Nc2nc(N)nc(C(F)(F)F)n2)cc1,inactive: -11.1%
5,COc1ccc(C2CC(=O)c3cnc(NC4CC4)nc3C2)cc1 (centres undefined),3.9%
6,COc1ccc(OCc2cc(C(=O)N3CCSCC3)no2)c2ccccc12,4.2%
7,COc1ccc(OC)c(CN2CCc3onc(-c4ccccc4F)c3C2)c1,6%
8,O=C(Nc1ccc2c(c1)OCCO2)c1ccc(=O)[nH]n1,inactive: -1.3%
9,COc1ccccc1CCN1CCCC(CN(C)C(=O)CCCn2cncn2)C1 (centres undefined),inactive: -4.1%
10,O=C(c1ccc2c(c1)no[n+]2[O-])N1CCCC(Nc2ccc3c(c2)OCCO3)C1 (centres undefined),inactive: -1.5%
11,Cn1ccnc1C1CCCCN1Cc1c(C(=O)N2CCCCCCC2)nc2sccn12 (centres undefined),10.8%
12,CC(C)Oc1cccc(C(=O)Nc2ccc3[nH]c(=O)[nH]c3c2)c1,5.2%
13,O=C(Nc1ccccc1N1CCN(C(=O)c2ccc(Cl)cc2)CC1)c1ccco1,0.8%
14,Cc1ccc(CCNCC2(c3cccc(F)c3)CCOC2)o1 (centres undefined),4%
15,CCC(Cn1ccnc1)NC(=O)c1cc(-c2cn[nH]c2)nc2cc(F)ccc12 (centres undefined),4%
16,O=C(C1COc2ccccc2C1)N1CCc2onc(-c3ccccc3F)c2C1 (centres undefined),17.7%
17,O=C(c1cn2ccsc2n1)N1CCCC(Nc2ccc3c(c2)OCCO3)C1 (centres undefined),3.5%
18,Oc1ccc(Cl)cc1CNC1CCCN(c2ncccn2)C1 (centres undefined),0.8%
19,CCOc1ccc(CNCCCNCCO)cc1,8.8%
20,O=C(c1cccc(-n2cnnc2)c1)N1CCOC(Cc2ccccc2)C1 (centres undefined),inactive: -1.6%
21,CN1CCC(N(C)C(=O)CCC2CCCN(Cc3cc4ccccc4s3)C2)CC1 (centres undefined),6.1%
22,O=C(CCn1nc(-c2ccccc2)c2ccccc2c1=O)NN1CCOCC1,4.4%

# Reformatted: 3 of the compounds above
row | SMILES | activity
3 | Cc1cccc(CNC2CC(=O)N(CCc3ccccc3)C2)n1 (centres undefined) | 3.2%
6 | Cc1c(CNCC2(O)CCCN(Cc3ccc(F)c(F)c3)C2=O)cnn1C (centres undefined) | inactive: -3.9%
17 | O=C(NCCCn1cccn1)c1cn(Cc2ccc(Cl)cc2)nn1 | inactive: -4.9%

# The list continues.

row,SMILES,activity
1,COc1cccc(OC)c1-c1cnnc(NC(C)c2cnn(C)c2C)n1 (centres undefined),1.2%
2,O=C(C(NS(=O)(=O)c1ccccc1)c1ccccc1)N1CCCCC1 (centres undefined),inactive: -5.7%
3,C#CCN(CC=C)Cc1cnc(S(C)(=O)=O)n1CCCc1ccccc1,inactive: -3.7%
4,CCOC(=O)C1CCCCN1Cc1cn[nH]c1-c1ccc(OC)cc1F (centres undefined),inactive: -4%
5,COc1ccc(-c2nc(CN(C)Cc3nonc3C)c(C)o2)c(OC)c1C,5.5%
6,CC(C)Oc1cccc(C(=O)Nc2ncn[nH]2)c1,inactive: -3.3%
7,CCCc1nnc(CSc2nc3ccccc3o2)o1,8.2%
8,O=C(CCN1CCCO1)N1CCOC(CCCc2ccccc2)C1 (centres undefined),2.5%
9,O=C(O)c1ccc(-c2nnc(-c3ccccc3Cl)o2)cc1,active: 78.3%
10,O=C(c1ccco1)N1CCN(c2c(F)c(F)c(Cl)c(F)c2F)CC1,inactive: -1.4%
11,CC(C(=O)NCc1cccnc1N1CCc2ccccc2C1)n1cncn1 (centres undefined),inactive: -0.3%
12,O=C(CCC1CCN(C(=O)CCc2cnccn2)CC1)NC1CCN(Cc2ccccc2)C1 (centres undefined),7.2%
13,Cc1cc2c(SCC(=O)NC3CCCC3)ncnc2s1,inactive: -1.1%
14,O=C1CCCN1CCNCc1ccccc1OCC(O)CN1CCCCC1 (centres undefined),8.4%
15,CN(CCc1ccccn1)c1ncccc1CNC(=O)C1CCCC1,1.9%
16,O=C(Cn1nnc(-c2cccs2)n1)NCCC1=CCCCC1,inactive: -7.9%
17,CN(C)CCNC(=O)c1ccc(OC2CCN(Cc3nccn3C)CC2)c(Cl)c1,inactive: -6.7%
18,CCC(C)OC1=CC=CC(OCCN2CCN(C)CC2)=[C+]1 (centres undefined),7.7%
19,Cc1cnc(C(=O)N2CCCC(CCC(=O)NCc3ccc(F)c(F)c3)C2)cn1 (centres undefined),6.1%
20,O=C(CCC1CCN(C(=O)c2ccc(Cl)s2)CC1)NCc1cccnc1,inactive: -0.6%
21,COc1cc(CN2CCN(Cc3ccc(F)c(F)c3)C(CCO)C2)ccc1O (centres undefined),5.6%
